Measured values: PubChem BioAssay AID1347426 (Functional Genomics Laboratory (NCATS/FGL), 2020)
Screen size: about 31,000 sequences; about 1,400 (4.5%) were called active.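 How the source made its calls: active means median seed-adjusted z-score above 1 or below -1; inactive means the rest.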 The list shows a part of the results.

Assay: Novel Modifiers of Survival Motor Neuron (SMN) Protein: Gene Identification via Genome-wide siRNA Screen;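 further: luminescence tracks full-length SMN protein made from the SMN2 reporter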
Conditions: HEK293T SMN2-luciferase reporter, siRNA knockdown, 72 h; actives lie on both sides
In short: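 Genome-wide siRNA screen (10418 genes, 3 siRNAs each, 1 pmol per well) by reverse transfection in HEK293T cells stably carrying an SMN2-luciferase reporter; luminescence after 72 hours, normalized to negative-control siRNA, log10-transformed, MAD-scored.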

Sequence	median seed-adjusted z-score
GGAUAUCAUGAUAUCAUCATT against ADAMTS1	inactive: 0.173
GCAACAUGACGGGACUGGUTT against LRFN4	inactive: -0.076
CAAUGUCUUCGCAAUGUUUTT against MYL9	inactive: 0.571
CCAUUAAGAAUGCUAAUAUTT against ABCB10	inactive: -0.1
CCGAGUAGCUGAAAUUGUUTT against BCL2L14	inactive: -0.859
ACACCUCUCUGAAACCUAUTT against CA1	inactive: 0.262
UGCUCUUCGUGGACCAGAATT against ZBTB17	inactive: 0.0544
GAAGGAGACUAAUGAGCAATT against FGD4	inactive: -0.0017
GGUUGAGGAAAGAGGCAAATT against ZBTB16	inactive: 0.431
GCAUAUUCCUAGACUAUGATT against TRIM39	inactive: 0.41
CAAUGAGGACUUUAAACAATT against HTR1B	inactive: -0.221
GAUUGACCGGUUCAGUAAATT against RAB7L1	inactive: 0.243
CAGUACUGCUGACACCCAATT against BAT2	inactive: 0.0889
GGAACAGUCAUGCUGGAUATT against SLC4A7	inactive: 0
GCAAGAGAAUUAAACUGCATT against RAB8A	inactive: -0.0436
GAUGGAGAAUAUUCCGUUUTT against MIF4GD	inactive: 0.373
UGAGAUUUCUGGUCAAGGATT against TRIM31	inactive: -0.167
GGCUCGAACUUACACUGAATT against GTF3C2	inactive: 0.32
CCACUGAUAGAUCACUUGATT against AADAC	inactive: 0.0318
CAACCUGCCGGAGUCUAGATT against OTX1	inactive: -0.475
GCACUACAGUUCGUAAGGATT against PPP3CC	inactive: 0.271
GAUCCAAAGGAAUAUGCUATT against GC	inactive: 0.14

Sequence	median seed-adjusted z-score
ACACCAAGAUGAUAAUUGATT against GPKOW	inactive: -0.239
GAAUAUUGCGAUGCCGAAATT against GPR65	inactive: -0.766
GGACUAUUCAGCAACAAAATT against PARP9	inactive: -0.526
GGACAGUCUUGGAUCAGCATT against PDE6B	inactive: -0.336
CAUAAUCGAUGCUAUUGUATT against PARP15	inactive: -0.332
GCAUUUAUCUGAGCACAGATT against ZNF673	inactive: 0.419
GAACUGUGGUGUCUUGGUATT against DUSP6	inactive: 0
ACUUUUAUGUUAGACAAGATT against METTL6	inactive: -0.415
GCAAUUCUCCGGUUAGAAATT against LSM4	inactive: -0.679
GAAUCGGAAUGUCAGUUAATT against TCEA1	inactive: 0
GGCCCUUGGCCUUACUAUGTT against ACSM2B	inactive: -0.0401
GCCUACUGGUCAUUGAUCATT against GNMT	inactive: 0.0261
CAGUCGUUUCAGUUACUUATT against ZNF44	inactive: 0.349
CAAUACUCUCCUAAAAUAATT against TYROBP	inactive: 0.249
GGAAACCAGUGGAUAUUAATT against F11	inactive: -0.0319
GCUAUGUUUUGAUGACGAATT against ZNF425	inactive: 0.0841
GGCUAAGGGCAUUACGUAUTT against DDX41	inactive: -0.611
CCUACAACAGUACAAGUUATT against CORIN	inactive: -0.0274
ACAUUUCUCAAAUAUGGAATT against NKX2-2	inactive: -0.0805
GCAGAGAAGUCCCAACUAATT against FLOT1	inactive: -0.685
GAGUCGGAGUCGAAGUAGATT against NKTR	active: -1.1
AGAGCAACAUCAACAUUAUTT against TKTL1	inactive: -0.495

Sequence	median seed-adjusted z-score
GCCUUCUCCCUAUUUGAUATT against CALM1	inactive: 0.355
GCAAACCAGAAGUAACAGATT against BAAT	inactive: 0.641
GGAAUCAGAUUAUUCAGGATT against TYMS	inactive: -0.6
CCAUCGAGAUGCUUCGAGUTT against HAS3	inactive: -0.179
CUGACAGUGUGGUAUUCUATT against PRDM13	inactive: 0
GAUCGUUGCAAAGUUCUUATT against CPSF6	active: -2.38
CCUUUGCACUACUUCGACATT against ST3GAL5	inactive: 0.11
GCAUGCCCAUGAACAAAAATT against B3GNT1	inactive: 0.0931
GGAUCUUGAAUUCAACUAUTT against TLR8	inactive: 0
GCCUUUAAUGGAUCCUCAATT against ZNF681	inactive: 0.271
GGAAAACAAUCUUAAGAAATT against ATOH7	inactive: 0.135
GGACAAGAACGGAAUUUCATT against SCLY	inactive: 0.00396
GAGCUUCAGUUUUACCGAATT against REXO2	inactive: -0.0419
GCAGUAUCAGAAAACGGAATT against ZNF567	inactive: -0.114
AGCUGAAAAUUGAGAACAATT against TBX4	inactive: 0.968
GCACUCGACUUGUACUAAATT against KCTD4	inactive: 0.649
GGACAAGAAGCAAAUGACATT against OLIG2	inactive: 0.00944
CGUCAACUCAUAAUAUGGATT against EIF5A	inactive: 0.00397
GAGACUGCACAACACGAUATT against TMEM11	inactive: -0.00121
GGUGUAAGAGAGCUACUAATT against IFIH1	inactive: 0.419
CAACAGACAAGGCACCUAATT against MYLK2	inactive: -0.0498
GCCUUACGAUUUCAUAGAATT against ME2	inactive: -0.0557

Sequence	median seed-adjusted z-score
GAAUUUGAGAUUGCACUGATT against ZMYND10	inactive: 0.255
CCUCCUCUGCUUAUCGUAUTT against GLT8D1	active: 1.22
ACCCUAUGCCUACACCUUUTT against APEX1	inactive: -0.312
GCCUCAUACUUUAUUAUCATT against MCM4	inactive: 0.0057
GAAAUACUCUGGUUAGAAATT against PTPRC	inactive: 0.197
CCUUUACUACGUGUGCACATT against POLR2I	active: -3.27
GCUCCUCAACAAUACCGCATT against POT1	inactive: 0.459
AGAUGGAGCAAACCGCUUUTT against LYL1	inactive: -0.118
GCCUAUCCGUGGAGUAGAATT against PTPRD	inactive: 0.425
CGUUCGGAAUAACUGAAAUTT against GNG7	inactive: -0.205
CAUUGAUGAUUUCGCUAAATT against SLCO1B1	inactive: 0.127
GGAGUUCAAUCAGUACCUATT against TTL	inactive: -0.174
CAUUGAACCACGUACCAUUTT against EHHADH	inactive: 0.0626
CCAACAGUGAGAAGACAAATT against LRRC47	inactive: 0.00856
CAAGAGCUCUGAGCAAGGATT against RAX2	inactive: 0.345
CCAAAUGAGUACGAAGAUATT against TNFAIP6	inactive: 0
CGAUGCUAGUGAUUGCUCUTT against WRN	inactive: -0.00482
GGAUCCAAAUUACAAUCCATT against DERL2	inactive: -0.27
CGGCAAGAGUGUCCAGUAUTT against RNF5	inactive: -0.0342
CAAUGUCCGGAAGCAGUUUTT against ACAD8	active: 1.06
GAGCGAGAUUUGAAGAUCATT against MYH11	inactive: 0
GGAAGGUGAUUGUCGGGAUTT against DPAGT1	inactive: -0.144

A different layout for part of the listing above.
Sequence,median seed-adjusted z-score
AGAUGGAGCAAACCGCUUUTT against LYL1,inactive: -0.118
GCCUAUCCGUGGAGUAGAATT against PTPRD,inactive: 0.425
CGUUCGGAAUAACUGAAAUTT against GNG7,inactive: -0.205
CAUUGAUGAUUUCGCUAAATT against SLCO1B1,inactive: 0.127
GGAGUUCAAUCAGUACCUATT against TTL,inactive: -0.174

(further entries)

Sequence	median seed-adjusted z-score
CUGACUUGUUUGAUCGAAATT against CSNK1G3	inactive: 0
AAGCAUAAUUUGUACAGCUTT against NMNAT1	inactive: 0.22
GACUCUAUGCUGAUAAUGATT against ADIPOQ	inactive: 0.557
AGGGCCUUAUGGUCAAGAATT against PRKAB2	inactive: 0.17
GGAUCGUAAAAAUAGCAAATT against DGKA	active: -1.36
CCUUCAGUCUUACUGAACATT against ZNF418	inactive: 0.804
ACACGAGAGAGAAACCUUUTT against ZNF146	inactive: 0.23
GACGUAUUCUAGUACAGAATT against TDG	inactive: 0.0549
GCAGGGUGCACAUAUCAUUTT against VNN3	inactive: 0.343
AGGCCGUCAUGGAAAUGAUTT against PFDN5	inactive: 0.562
GGAUGUAGGUUUUAGUACATT against KCNJ3	inactive: -0.0229
GGUGAACUCUACAACCGGATT against PDCD11	inactive: -0.335
GACCAAGUAUGAGCACGAATT against KRT16	inactive: -0.233
CGAGAUAACUACUGCCGAUTT against PCOLCE2	active: -1.15
CCAUUACACCGGCUGCUCUTT against AQP2	inactive: -0.433
GAAUUGACUUUAGAAGAAUTT against GUCA1C	inactive: -0.617
GAAACACCUCGAGACCAAATT against TXNDC9	inactive: -0.176
GCAUGGAGGUUGUCUAUGATT against MKRN3	inactive: 0.402
CGUACGGGCGCAUCAUUAATT against MINK1	inactive: -0.522
GCUUCUAUGUUUAACAUCUTT against ELOVL2	inactive: -0.456

As entered above:
Value for AGGCCGUCAUGGAAAUGAUTT against PFDN5 under median seed-adjusted z-score: inactive: 0.562
Value for CCAUUACACCGGCUGCUCUTT against AQP2 under median seed-adjusted z-score: inactive: -0.433
